# The other results are listed elsewhere or left out.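 How the source made its calls: active = dose-dependent thermal stabilisation significant by F-test of dose-response against flat model at 10% FDR; inactive = not significant.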
# Amino acid sequences for entries named in this document (tags omitted). A change or cut given only in a name is not applied to a line headed by its entry.
# UniProt Q5VV52: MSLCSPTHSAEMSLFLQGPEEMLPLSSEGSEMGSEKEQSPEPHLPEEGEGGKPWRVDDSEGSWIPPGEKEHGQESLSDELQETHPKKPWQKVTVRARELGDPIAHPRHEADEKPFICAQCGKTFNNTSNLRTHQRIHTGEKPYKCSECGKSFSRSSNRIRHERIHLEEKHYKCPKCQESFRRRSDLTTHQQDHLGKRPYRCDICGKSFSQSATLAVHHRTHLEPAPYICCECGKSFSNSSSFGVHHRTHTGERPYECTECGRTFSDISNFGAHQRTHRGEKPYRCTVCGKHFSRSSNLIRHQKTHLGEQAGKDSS
# UniProt Q86YA3: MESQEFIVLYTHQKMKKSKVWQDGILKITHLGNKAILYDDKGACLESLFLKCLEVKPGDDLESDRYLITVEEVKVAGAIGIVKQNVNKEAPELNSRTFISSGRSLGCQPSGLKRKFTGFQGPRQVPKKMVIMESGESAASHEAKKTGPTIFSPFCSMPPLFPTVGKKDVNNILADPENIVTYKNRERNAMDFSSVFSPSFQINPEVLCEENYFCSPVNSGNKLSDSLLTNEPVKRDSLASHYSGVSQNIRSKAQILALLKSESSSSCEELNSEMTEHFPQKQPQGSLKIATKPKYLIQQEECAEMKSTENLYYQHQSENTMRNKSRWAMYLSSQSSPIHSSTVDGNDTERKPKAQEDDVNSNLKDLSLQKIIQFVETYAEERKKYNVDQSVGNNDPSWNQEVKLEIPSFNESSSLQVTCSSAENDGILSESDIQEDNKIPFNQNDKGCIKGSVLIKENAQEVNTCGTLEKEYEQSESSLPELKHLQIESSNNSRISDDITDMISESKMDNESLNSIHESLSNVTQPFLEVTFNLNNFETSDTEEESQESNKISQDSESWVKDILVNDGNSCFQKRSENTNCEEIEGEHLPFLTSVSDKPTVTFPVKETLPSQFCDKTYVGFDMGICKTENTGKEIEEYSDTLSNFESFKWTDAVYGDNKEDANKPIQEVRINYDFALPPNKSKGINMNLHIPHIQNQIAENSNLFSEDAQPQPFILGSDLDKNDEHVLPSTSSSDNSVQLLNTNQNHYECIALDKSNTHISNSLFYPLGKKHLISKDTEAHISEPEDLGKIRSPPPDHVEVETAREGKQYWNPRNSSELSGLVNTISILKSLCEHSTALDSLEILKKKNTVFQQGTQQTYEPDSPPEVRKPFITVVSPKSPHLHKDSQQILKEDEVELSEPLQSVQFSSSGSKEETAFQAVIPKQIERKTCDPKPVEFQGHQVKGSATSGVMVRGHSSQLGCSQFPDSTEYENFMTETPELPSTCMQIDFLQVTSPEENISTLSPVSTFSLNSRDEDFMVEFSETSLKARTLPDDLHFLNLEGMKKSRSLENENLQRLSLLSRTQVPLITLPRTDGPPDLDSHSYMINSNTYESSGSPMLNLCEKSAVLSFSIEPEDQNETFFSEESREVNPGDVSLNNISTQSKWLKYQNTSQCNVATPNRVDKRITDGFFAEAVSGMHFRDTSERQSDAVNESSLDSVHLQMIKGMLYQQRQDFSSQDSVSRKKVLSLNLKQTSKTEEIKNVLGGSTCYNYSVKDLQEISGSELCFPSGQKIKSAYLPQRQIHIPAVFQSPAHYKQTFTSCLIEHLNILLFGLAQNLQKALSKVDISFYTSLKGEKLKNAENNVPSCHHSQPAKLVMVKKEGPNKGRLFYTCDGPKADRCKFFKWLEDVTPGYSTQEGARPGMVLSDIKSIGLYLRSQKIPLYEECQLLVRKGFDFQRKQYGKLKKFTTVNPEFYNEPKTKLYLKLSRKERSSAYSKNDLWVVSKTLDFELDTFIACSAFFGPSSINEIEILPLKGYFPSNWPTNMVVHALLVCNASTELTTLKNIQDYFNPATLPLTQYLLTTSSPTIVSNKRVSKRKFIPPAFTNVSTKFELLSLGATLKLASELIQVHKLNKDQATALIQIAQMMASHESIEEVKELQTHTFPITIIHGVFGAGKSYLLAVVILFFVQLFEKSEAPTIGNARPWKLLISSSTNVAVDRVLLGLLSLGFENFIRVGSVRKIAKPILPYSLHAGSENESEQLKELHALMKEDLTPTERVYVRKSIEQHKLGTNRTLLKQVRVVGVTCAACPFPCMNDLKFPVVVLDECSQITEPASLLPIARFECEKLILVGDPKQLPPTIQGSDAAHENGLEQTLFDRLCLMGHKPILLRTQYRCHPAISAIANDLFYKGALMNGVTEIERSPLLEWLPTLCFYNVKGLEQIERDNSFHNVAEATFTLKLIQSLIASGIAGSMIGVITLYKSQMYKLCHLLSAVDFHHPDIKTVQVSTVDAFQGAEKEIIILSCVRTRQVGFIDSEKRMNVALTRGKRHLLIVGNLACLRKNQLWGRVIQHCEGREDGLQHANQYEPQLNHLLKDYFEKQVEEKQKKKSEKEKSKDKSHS
# UniProt Q8N5A5: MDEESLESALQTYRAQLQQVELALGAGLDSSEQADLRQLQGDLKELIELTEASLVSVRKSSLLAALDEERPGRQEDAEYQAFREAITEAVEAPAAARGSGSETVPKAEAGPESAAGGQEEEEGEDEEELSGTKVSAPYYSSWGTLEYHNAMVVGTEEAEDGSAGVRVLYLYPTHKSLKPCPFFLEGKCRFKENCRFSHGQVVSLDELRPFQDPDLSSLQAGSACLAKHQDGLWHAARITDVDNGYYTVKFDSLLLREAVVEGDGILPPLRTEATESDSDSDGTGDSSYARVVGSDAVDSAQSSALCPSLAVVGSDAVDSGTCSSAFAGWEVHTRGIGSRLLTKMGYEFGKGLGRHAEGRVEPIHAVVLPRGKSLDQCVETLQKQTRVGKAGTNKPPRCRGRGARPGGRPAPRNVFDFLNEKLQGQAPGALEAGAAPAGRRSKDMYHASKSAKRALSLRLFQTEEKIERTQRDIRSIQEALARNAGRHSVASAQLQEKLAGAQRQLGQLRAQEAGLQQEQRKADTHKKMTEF
# UniProt Q8NHG8: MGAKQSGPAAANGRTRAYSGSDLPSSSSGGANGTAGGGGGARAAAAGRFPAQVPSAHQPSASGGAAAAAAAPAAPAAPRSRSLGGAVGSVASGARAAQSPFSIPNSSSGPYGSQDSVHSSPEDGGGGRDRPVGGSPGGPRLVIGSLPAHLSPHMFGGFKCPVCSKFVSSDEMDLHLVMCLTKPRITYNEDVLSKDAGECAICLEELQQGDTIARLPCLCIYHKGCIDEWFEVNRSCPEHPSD
# UniProt Q9Y5A6: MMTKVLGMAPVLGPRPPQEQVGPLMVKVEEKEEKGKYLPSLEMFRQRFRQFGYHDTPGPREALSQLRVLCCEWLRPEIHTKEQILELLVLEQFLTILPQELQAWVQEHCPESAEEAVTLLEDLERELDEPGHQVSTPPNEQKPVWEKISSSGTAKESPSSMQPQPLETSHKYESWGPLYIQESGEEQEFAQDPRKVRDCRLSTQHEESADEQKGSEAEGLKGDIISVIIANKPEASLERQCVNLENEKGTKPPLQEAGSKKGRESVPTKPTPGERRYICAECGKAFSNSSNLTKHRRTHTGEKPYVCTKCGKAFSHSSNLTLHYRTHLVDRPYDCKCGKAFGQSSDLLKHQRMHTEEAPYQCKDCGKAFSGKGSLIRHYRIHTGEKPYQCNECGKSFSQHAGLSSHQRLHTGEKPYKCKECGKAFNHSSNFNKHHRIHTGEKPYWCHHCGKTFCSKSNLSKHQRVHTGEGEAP
# UniProt Q9H4Z2: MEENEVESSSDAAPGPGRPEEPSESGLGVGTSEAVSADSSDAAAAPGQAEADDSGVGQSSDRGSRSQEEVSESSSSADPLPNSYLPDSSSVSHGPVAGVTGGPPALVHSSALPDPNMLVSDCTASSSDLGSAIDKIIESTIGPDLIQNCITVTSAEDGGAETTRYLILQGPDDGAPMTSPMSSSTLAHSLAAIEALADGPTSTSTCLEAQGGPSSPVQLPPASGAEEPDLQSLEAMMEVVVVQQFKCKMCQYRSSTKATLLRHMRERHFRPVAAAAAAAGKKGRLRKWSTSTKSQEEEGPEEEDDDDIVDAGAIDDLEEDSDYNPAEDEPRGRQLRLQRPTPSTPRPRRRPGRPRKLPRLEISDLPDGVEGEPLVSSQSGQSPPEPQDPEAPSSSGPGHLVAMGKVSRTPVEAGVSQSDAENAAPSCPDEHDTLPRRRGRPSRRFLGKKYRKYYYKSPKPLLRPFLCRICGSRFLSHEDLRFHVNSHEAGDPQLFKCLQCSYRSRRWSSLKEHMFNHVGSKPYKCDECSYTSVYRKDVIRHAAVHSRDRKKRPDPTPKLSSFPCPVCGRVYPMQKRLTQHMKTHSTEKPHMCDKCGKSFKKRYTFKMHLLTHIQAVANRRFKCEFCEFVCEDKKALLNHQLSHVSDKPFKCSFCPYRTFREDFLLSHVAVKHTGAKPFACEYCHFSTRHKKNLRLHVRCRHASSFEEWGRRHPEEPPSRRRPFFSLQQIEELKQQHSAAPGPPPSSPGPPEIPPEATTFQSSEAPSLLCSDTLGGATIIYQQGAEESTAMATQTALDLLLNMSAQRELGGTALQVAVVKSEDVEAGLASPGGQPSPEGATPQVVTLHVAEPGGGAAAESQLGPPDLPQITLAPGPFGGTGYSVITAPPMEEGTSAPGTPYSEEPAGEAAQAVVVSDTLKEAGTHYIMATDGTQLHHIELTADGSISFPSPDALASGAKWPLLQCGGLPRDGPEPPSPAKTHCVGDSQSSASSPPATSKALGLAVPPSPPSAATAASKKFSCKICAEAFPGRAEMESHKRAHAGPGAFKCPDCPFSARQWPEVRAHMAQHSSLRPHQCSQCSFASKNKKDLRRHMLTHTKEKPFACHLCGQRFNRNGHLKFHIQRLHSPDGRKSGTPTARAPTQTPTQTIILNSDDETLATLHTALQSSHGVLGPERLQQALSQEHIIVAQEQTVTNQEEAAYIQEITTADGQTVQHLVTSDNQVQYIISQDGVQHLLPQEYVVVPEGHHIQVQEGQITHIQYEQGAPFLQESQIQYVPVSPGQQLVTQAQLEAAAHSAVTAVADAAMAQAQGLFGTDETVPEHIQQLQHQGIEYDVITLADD
# UniProt Q9Y5V0: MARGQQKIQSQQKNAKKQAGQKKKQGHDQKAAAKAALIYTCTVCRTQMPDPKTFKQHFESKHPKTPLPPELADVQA
# UniProt Q96B54: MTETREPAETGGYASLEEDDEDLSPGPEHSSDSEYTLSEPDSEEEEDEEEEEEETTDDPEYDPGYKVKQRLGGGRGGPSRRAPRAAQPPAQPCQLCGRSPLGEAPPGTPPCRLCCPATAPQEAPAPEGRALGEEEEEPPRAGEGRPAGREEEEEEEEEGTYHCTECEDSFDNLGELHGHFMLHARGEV
# UniProt Q6FIF0: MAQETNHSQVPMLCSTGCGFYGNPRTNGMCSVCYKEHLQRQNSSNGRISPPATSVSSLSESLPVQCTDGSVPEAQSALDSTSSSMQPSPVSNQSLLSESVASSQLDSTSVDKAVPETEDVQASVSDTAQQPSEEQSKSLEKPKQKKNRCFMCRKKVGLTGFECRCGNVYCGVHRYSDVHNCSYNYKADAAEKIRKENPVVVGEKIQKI
# UniProt Q9ULJ6: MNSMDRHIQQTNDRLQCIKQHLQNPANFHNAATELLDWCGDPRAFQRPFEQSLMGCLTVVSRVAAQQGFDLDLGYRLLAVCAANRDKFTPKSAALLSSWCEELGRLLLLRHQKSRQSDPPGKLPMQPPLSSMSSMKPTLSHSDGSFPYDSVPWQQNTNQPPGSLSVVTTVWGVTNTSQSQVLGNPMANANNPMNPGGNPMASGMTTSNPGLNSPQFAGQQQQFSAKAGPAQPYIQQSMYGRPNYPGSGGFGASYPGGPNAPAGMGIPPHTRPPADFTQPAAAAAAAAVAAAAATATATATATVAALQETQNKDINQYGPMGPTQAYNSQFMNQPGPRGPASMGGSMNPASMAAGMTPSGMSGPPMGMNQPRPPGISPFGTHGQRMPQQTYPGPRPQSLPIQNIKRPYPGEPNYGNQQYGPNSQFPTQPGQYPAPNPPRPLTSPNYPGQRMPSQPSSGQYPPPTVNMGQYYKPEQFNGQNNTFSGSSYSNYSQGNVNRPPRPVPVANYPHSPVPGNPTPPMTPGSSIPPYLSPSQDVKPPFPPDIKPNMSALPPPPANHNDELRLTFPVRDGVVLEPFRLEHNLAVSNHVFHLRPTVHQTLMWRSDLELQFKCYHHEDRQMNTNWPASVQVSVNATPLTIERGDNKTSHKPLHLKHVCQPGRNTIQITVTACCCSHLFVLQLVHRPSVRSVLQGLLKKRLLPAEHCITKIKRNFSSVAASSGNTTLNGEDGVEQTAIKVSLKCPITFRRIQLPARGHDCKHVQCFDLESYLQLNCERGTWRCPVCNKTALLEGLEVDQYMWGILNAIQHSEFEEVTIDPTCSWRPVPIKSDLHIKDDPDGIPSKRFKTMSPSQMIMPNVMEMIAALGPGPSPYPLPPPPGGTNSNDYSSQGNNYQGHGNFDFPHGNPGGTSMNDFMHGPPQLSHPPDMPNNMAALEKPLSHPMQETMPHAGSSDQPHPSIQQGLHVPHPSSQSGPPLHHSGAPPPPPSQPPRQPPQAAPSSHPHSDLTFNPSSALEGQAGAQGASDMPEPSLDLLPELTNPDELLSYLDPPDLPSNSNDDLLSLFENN
# Compound: Nc1nc2c(ncn2[C@@H]2O[C@H](COP(=O)(O)OP(=O)(O)OP(=O)(O)O)[C@@H](O)[C@H]2O)c(=O)[nH]1
# Experiment: dose-dependent thermal stabilisation call (2D-TPP, DLPTP, 10% FDR) (binary (1 = stabilised)); higher = stabilised by the compound
# Conditions: system: Jurkat gel-filtered lysate; concentration range 1-500 µM
# Method: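 2D thermal proteome profiling in gel-filtered Jurkat E6.1 lysate (2 mg/ml) treated with NaGTP (0, 1, 10, 100, 500 uM) for 10 min at room temperature, then heated 3 min at one of 12 temperatures (42-63.9 C). Soluble protein was quantified by TMT10 MS. The value is the DLPTP call of the paper: dose-dependent thermal stabilisation over all temperatures at 10% FDR (F-test of a dose-response against a flat model); one experiment, one call per tested protein.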
row,Target,dose-dependent thermal stabilisation call
1,ZMAT2 (UniProt Q96NC0),inactive: 0
2,ZNF691 (UniProt Q5VV52),inactive: 0
3,ZNF316 (UniProt A6NFI3),inactive: 0
4,ZFYVE9 (UniProt O95405),inactive: 0
5,ZNF280D (UniProt Q6N043),inactive: 0
6,ZNF281 (UniProt Q9Y2X9),inactive: 0
7,ZGRF1 (UniProt Q86YA3),inactive: 0
8,ZGPAT (UniProt Q8N5A5),inactive: 0
9,ZHX3 (UniProt Q9H4I2),inactive: 0
10,ZFYVE16 (UniProt Q7Z3T8),inactive: 0
11,ZFR (UniProt Q96KR1),inactive: 0
12,ZHX2 (UniProt Q9Y6X8),inactive: 0
13,ZNF451 (UniProt Q9Y4E5),inactive: 0
14,ZZZ3 (UniProt Q8IYH5),inactive: 0
15,ZNRF2 (UniProt Q8NHG8),inactive: 0
16,ZNF668 (UniProt Q96K58),inactive: 0
17,ZSCAN25 (UniProt Q6NSZ9),inactive: 0
18,ZFYVE19 (UniProt Q96K21),inactive: 0
19,ZNHIT6 (UniProt Q9NWK9),inactive: 0
20,ZMIZ2 (UniProt Q8NF64),inactive: 0

row,Target,dose-dependent thermal stabilisation call
1,ZNF148 (UniProt Q9UQR1),inactive: 0
2,ZNF598 (UniProt Q86UK7),inactive: 0
3,ZNF438 (UniProt Q7Z4V0),inactive: 0
4,ZPR1 (UniProt O75312),inactive: 0
5,ZFP1 (UniProt Q6P2D0),inactive: 0
6,ZNF687 (UniProt Q8N1G0),inactive: 0
7,ZSCAN21 (UniProt Q9Y5A6),inactive: 0
8,ZNF335 (UniProt Q9H4Z2),inactive: 0
9,ZNF706 (UniProt Q9Y5V0),inactive: 0
10,ZNF672 (UniProt Q499Z4),active: 1
11,ZNF592 (UniProt Q92610),inactive: 0
12,ZZEF1 (UniProt O43149),inactive: 0
13,ZNF428 (UniProt Q96B54),inactive: 0
14,ZNF384 (UniProt Q8TF68),inactive: 0
15,ZNF521 (UniProt Q96K83),inactive: 0
16,ZFAND6 (UniProt Q6FIF0),inactive: 0
17,ZNF286A (UniProt Q9HBT8),inactive: 0
18,ZMIZ1 (UniProt Q9ULJ6),inactive: 0
19,ZWILCH (UniProt Q9H900),active: 1
20,ZFX (UniProt P17010),inactive: 0

# Some of the entries above, set out differently.
row | Target | dose-dependent thermal stabilisation call
5 | ZFP1 (UniProt Q6P2D0) | inactive: 0
6 | ZNF687 (UniProt Q8N1G0) | inactive: 0

# — the supplement of paper PMC7666118
